In the supplement of paper PMC4894684:
Counter-ions that a name gives are not always drawn. ± gives the standard deviation of the averaged measurements. The strong results were mostly taken out for another list; the other results follow.

System: HFF
Experiment: uninfected host cell viability relative to vehicle control; higher = less host cell toxicity
Settings: 5 µM; 72 h; oxygen 21 %
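Also: confluent HFF monolayers, run in parallel with the Toxoplasma growth screen as a host toxicity counterscreen.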

Q: `Cc1c(C(=O)NN2CCCCC2)nn(-c2ccc(Cl)cc2Cl)c1-c1ccc(I)cc1` was tested. Which “uninfected host cell viability” value did it give?
A: 104 ± 2.1%

Q: With `Cc1cccc(CCN2CCC(C(=O)c3ccc(NS(C)(=O)=O)cc3)CC2)n1` [E-4031 dihydrochloride] as the compound, how does the “uninfected host cell viability” value read?
A: 89.4 ± 4.9%
